Measurements from “University of Dundee, Small-Polar-MMV Screening Library” (2021), ChEMBL document CHEMBL3988442.

Chains of the proteins cited; added tags and fusions are not shown. Residues count along the entry.
UniProt P9WNZ1, whole entry: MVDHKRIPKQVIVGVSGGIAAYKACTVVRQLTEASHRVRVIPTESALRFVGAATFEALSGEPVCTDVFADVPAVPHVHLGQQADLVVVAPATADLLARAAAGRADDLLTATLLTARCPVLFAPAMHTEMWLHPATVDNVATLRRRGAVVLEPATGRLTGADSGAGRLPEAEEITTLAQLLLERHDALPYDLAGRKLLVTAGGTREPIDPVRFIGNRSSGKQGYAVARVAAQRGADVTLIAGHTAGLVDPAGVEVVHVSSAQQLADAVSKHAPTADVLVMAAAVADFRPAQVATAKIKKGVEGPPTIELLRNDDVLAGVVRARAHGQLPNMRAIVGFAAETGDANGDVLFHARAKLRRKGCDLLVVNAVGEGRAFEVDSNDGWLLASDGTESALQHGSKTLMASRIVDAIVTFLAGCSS
UniProt I6X8D2, whole entry: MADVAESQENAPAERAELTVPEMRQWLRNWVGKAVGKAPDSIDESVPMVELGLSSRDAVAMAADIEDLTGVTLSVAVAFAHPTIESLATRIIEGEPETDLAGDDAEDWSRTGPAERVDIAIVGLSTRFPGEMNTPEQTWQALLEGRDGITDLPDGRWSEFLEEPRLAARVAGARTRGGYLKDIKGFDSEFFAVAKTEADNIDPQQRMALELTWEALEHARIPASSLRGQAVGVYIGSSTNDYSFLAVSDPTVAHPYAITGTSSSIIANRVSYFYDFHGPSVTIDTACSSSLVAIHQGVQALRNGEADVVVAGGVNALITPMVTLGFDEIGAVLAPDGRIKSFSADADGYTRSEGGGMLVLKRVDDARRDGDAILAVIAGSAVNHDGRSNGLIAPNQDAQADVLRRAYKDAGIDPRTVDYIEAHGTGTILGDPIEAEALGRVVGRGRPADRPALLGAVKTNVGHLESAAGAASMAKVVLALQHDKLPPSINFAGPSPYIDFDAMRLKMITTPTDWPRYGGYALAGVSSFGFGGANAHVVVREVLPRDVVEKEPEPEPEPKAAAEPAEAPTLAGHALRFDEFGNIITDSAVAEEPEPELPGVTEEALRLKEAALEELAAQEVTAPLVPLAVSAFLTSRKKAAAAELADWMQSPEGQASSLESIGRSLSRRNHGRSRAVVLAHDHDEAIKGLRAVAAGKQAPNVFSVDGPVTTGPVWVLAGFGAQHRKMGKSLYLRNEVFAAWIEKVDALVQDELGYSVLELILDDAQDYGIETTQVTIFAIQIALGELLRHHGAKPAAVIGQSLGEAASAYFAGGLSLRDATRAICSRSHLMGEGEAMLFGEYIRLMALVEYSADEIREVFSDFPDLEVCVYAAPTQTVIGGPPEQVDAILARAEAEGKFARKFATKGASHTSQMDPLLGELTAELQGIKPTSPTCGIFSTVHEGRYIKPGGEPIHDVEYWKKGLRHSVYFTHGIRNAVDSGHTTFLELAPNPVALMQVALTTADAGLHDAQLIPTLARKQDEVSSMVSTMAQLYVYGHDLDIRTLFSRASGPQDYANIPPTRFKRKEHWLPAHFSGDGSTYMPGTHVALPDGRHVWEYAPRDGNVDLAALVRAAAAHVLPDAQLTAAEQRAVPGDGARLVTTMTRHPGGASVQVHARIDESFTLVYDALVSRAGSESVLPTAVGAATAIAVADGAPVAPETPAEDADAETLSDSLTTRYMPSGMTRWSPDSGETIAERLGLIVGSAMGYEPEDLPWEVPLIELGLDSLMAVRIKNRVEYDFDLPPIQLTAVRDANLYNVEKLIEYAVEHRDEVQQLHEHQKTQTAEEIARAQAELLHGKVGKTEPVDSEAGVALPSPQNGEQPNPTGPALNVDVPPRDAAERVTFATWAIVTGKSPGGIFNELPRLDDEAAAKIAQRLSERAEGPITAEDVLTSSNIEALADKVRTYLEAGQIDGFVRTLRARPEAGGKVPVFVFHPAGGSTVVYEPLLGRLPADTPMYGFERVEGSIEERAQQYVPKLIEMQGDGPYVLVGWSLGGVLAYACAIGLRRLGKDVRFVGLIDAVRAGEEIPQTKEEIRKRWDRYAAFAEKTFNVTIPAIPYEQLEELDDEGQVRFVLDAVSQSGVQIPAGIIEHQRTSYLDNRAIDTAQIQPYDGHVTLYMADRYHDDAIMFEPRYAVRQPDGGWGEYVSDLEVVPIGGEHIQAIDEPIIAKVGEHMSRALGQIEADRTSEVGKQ
UniProt P9WFT3, whole entry: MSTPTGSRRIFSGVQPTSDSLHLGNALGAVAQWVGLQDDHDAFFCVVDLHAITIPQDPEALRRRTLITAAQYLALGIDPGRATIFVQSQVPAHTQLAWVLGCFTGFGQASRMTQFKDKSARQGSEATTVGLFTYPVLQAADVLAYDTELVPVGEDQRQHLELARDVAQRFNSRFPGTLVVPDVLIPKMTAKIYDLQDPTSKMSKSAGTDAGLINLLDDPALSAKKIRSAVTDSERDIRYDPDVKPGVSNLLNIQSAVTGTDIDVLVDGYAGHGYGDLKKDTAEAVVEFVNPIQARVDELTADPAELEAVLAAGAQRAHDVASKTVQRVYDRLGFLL
UniProt A4I591, 1-473: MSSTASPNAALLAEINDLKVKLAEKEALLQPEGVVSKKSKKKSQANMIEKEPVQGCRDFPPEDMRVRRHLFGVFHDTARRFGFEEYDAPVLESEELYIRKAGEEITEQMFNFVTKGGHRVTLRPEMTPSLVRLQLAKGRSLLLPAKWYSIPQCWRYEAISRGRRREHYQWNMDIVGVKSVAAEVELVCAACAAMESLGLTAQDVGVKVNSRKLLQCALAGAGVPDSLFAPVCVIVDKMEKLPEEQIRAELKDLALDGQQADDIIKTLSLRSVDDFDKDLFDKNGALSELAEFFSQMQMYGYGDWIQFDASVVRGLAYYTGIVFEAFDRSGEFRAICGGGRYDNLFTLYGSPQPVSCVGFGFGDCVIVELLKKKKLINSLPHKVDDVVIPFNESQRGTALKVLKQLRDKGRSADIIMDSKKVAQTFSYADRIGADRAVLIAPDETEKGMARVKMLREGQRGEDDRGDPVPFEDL

CoaBC: 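Enzyme assay of CoaBC with a phosphate dye (Biomol Green) read at 650 nm. Target: Coenzyme A biosynthesis protein CoaBC, Mycobacterium tuberculosis (UniProt P9WNZ1). Tested at 30 µM. Higher reads as stronger inhibition, judged from the few compounds that gave an IC50. Most strong results did not repeat in a second test. Of about 67,000 compounds tested this way, about 40 (0.06%) reached 50% or more in at least one test.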
Pks13 thioesterase: 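Enzyme assay of the thioesterase domain of polyketide synthase 13; the read-out is not stated. Target: Polyketide synthase Pks13, Mycobacterium tuberculosis (UniProt I6X8D2). Compounds at 30 µM. Higher reads as stronger inhibition (inferred from which compounds were picked for retests). About 67,000 compounds were tested under these conditions; 0.46% (about 300) showed 50% or more at least once.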
MtTrpRS: 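Enzyme assay of tryptophanyl-tRNA synthetase; the read-out is not stated. Target: Tryptophan-tRNA ligase, Mycobacterium tuberculosis (UniProt P9WFT3). Tested at 10 µM. Higher most likely means stronger inhibition; the record gives no direction and few retests gave an IC50. About 65,000 compounds were tested under these conditions; 0.098% (about 64) showed 50% or more at least once.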
LiHisRS: 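Enzyme assay of histidyl-tRNA synthetase; the read-out is not stated. Target: Histidine-tRNA ligase, Leishmania infantum (UniProt A4I591). Concentration: 30 µM. Direction is inferred from retests: higher values go with stronger inhibition. The assay is labelled LdHisRS but filed under L. infantum. Of about 69,000 compounds tested this way, about 410 (0.6%) reached 50% or more in at least one test.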

The filed quantity is “Percent Effect” (%).
The controls that fix the scale are not given in the record; negative values are as filed.
This is an unselected part of the compounds tested.
A dash means the value is not listed here; it may have been measured.

SMILES | CoaBC | Pks13 thioesterase | MtTrpRS | LiHisRS
COCC1CN(C(=O)CC2=CCCCC2)Cc2nnn(CC3CC3)c21 (configuration not stated) | 3.448% | -9.871% | -2.698% | 28%
COc1ccc(CN(C)CC(=O)Nc2ccc3[nH]c(=O)[nH]c3c2)cc1F | 4.436% | -16.53% | 0.2987% | 26.58%
C[C@@H]1CN(C2CCN(c3ccccc3F)CC2)C[C@]1(C)O | 0.9828% | 25.33% | 2.315% | 10.32%
CCc1ncc2c(n1)CN(CC(=O)Nc1ccncc1)CC2 | 1.149% | -14.61% | -2.715% | 15.18%
N#Cc1cnc2ccccc2c1N1CCN(CCC(=O)O)CC1 | 11.9% | -24.25% | -2.293% | 23.94%
CC(C)OCCN1CCN(C(C)c2nc(C3CC3)no2)CC1 (configuration not stated) | 5.604% | -30.15% | 21.38% | 31.19%
OCCCN(CCc1cccc(F)c1)C1CC1 | 2.479% | -8.055% | -1.175% | 12.24%
CCOC(=O)[C@H]1[C@@H](O)C(=O)N(C)C12CCN(C(=O)CC(C)C)CC2 | 1.35% | 14.54% | - | 8.247%
Cc1c(C2CCCN(C(=O)Cc3ccccn3)C2)n2c(nc1=O)CCC2 (configuration not stated) | 3.056% | -14.69% | 1.923% | 19.44%
Cc1ccc(F)c2c1CCCN2Cc1cc(=O)n(C)c(=O)n1C | 4.04% | 5.379% | 1.29% | 26.6%
Cc1nc(C)c(CC(=O)N2CCN(CC(C)C)CC2)c(=O)[nH]1 | 0.6329% | -7.889% | -3.193% | 16.88%
CC(C)(C)CC(=O)NCC(=O)Nc1ccn(Cc2cccnc2)n1 | 2.405% | 3.669% | -1.22% | 22.5%
COc1ccc(CN2CCC3(CC2)NC(=O)CC3c2cnn(C)c2)cc1 (configuration not stated) | -10.92% | -13.63% | -0.1744% | 9.091%
CC(C)C(C)NC(=O)CNc1cc2c(cc1Cl)NC(=O)CO2 (configuration not stated) | 3.037% | -16.37% | -0.7227% | 15.04%
CCc1cnc(CCNC(=O)N2CCCC(c3ncc[nH]3)C2)s1 (configuration not stated) | 3.165% | 7.209% | 0.5452% | 1.299%
COc1cncc(-n2ccnc2-c2ccc(C(=O)O)s2)c1 | -2.512% | 11.67% | -3.783% | 36.07%
Cn1cccc1C(O)CNS(=O)(=O)c1ccccc1Br (configuration not stated) | -15.01% | -55.59% | -6.915% | 6.957%
COc1cc(N2C[C@@H]3COC[C@]3(COc3ccccn3)C2)ncn1 | 3.329% | -8.385% | -4.344% | 0%
CN(c1ncccc1CNC(=O)c1csnn1)C1CCCCC1 | 5% | -22.14% | 5.563% | 10.99%
Cc1cnn(CC2CN(Cc3nc4ccccc4c(=O)[nH]3)CCO2)c1 (configuration not stated) | 7.05% | -12.22% | 0.627% | -0.885%
Cc1nccc(N2CCC(Cc3cccc(C(=O)O)c3)CC2)n1 | -5.14% | -25.77% | -0.4248% | 17.11%
c1cnc(C2CCCN2c2cnccn2)cn1 (configuration not stated) | 3.346% | -17.93% | - | 22%
CCN1CCN(Cc2csc(C(C)C)n2)CC1 | 3.672% | -4.692% | 1.221% | 9.917%
CCc1c(C)sc2ncnc(N3CC[C@@H](N4CCC(O)CC4)[C@H](O)C3)c12 | - | -32.73% | 1.135% | 31.43%
CN(C)CCO[C@@H]1CC[C@H]2[C@H]1OCCN2C(=O)COc1ccccc1 | -1.542% | -32.55% | -0.08719% | 6.015%
CC1CCN(C(=O)CSCc2nc(C3CC3)no2)CC1 | 5.992% | 8.482% | -6.242% | 8.219%
CN1CCc2cc(C(=O)N(C)C)c(NCC3CC3)nc2CC1 | 10.37% | -5.506% | -5.354% | -18.06%
COCC(=O)N[C@H]1C[C@@H](C(=O)NCCc2cccc(Cl)c2)N(C)C1 | 0.3817% | -4.052% | 1.485% | 17.07%
CC(C)c1cc(C2CCN(C(=O)Cn3cnnn3)CC2)[nH]n1 | -2.217% | -6.447% | -0.6415% | 3.333%
CCN1CC(C(=O)NC(C)(C)CC(C)(C)C)CC1=O (configuration not stated) | 0% | -13.08% | 3.856% | 9.434%
c1cc2c(cc1CN1CC[C@H]3CO[C@H](CN4CCCC4)[C@H]3C1)OCO2 | -24.39% | -7.076% | -1.83% | 22%
Cc1csc([C@@H]2C[C@@H]3CCN(C(=O)c4cccn4C)C[C@H]3O2)n1 | 14.11% | -1.95% | 26.06% | 20.35%
CCN1CCC2(CCC1=O)CN(c1cnc3ccccc3n1)CCN2C (configuration not stated) | 4.37% | -14.32% | -3.638% | 17.71%
CS(=O)(=O)NC1CCN(C(=O)c2ccc3ccccc3c2)C1 (configuration not stated) | -7.592% | -8.679% | 12.75% | -6.25%
Cc1ccc(CN2CCS(=O)(=O)C(C)(C)C2)cc1C | 9.709% | 1.066% | 7.267% | 15.29%
COC1COC2(CCN(CC3CCOCC3)CC2)C1 (configuration not stated) | 2.599% | -14.2% | - | 1.98%
CCCSc1ncc(Cl)c(C(=O)NC(CCSC)C(=O)O)n1 (configuration not stated) | -0.6135% | 5.17% | - | 6.186%
c1cnc(N2CCC3(CCN(CC4CCOCC4)CC3)C2)nc1 | -12.95% | 3.726% | -0.4188% | 6.195%
CC(=O)N1[C@@H](C(=O)NCC2CC2)C[C@@H]2CN(Cc3ccco3)C[C@@H]21 | -1.209% | -5.836% | 2.519% | 17.07%
COCCN(Cc1cccs1)C(=O)C1CCCN(C(N)=O)C1 (configuration not stated) | 4.147% | -12.48% | -0.6796% | 5%
c1cc2c(cc1OC[C@@H]1CCCN3CCCC[C@H]13)OCCO2 | -23.57% | -9.868% | -1.256% | 4.425%
Cc1nccn1CCN(C)c1cc(C(C)C)nc2ccnn12 | 10.49% | 10.06% | -8.753% | 6.452%
CC1(C)CN(CC(F)(F)F)CCN1CC(=O)NC1CCCC1 | -5.882% | 0.7042% | 1.728% | 8.889%
CC(C)CNC(=O)c1cn(-c2ccccn2)c(=O)c2ccccc12 | 5.293% | 42.51% | -6.004% | 25%
CCc1nc(CN2CCCN(CC(=O)N3CCOCC3)CC2)no1 | -2.89% | 0.5715% | -3.661% | 5.357%
O=C(c1ccnc(N2CCOC(C(F)(F)F)C2)c1)N1CCCC1 (configuration not stated) | -0.9639% | -10.78% | -0.3236% | 12.09%
CN(C)c1ncc(I)c(C2CCCCN2S(C)(=O)=O)n1 (configuration not stated) | 1.214% | -50.84% | 0.9161% | 18.57%
Cc1cccnc1[C@H](C)NC(=O)c1cccc(CC2CCNCC2)c1 | -13.64% | -39.14% | -3.095% | 20%
CCNC(=O)NC(C)c1nc(-c2ccc(Br)cc2)no1 (configuration not stated) | 7.143% | -28.82% | -3.818% | 1.042%
CC(C)Nc1nc(-c2ccccc2)nc2c1CCN(C(=O)CC#N)CC2 | 0.7407% | - | - | 8.182%
CC1c2ncc(COCC3CCCC3)n2CCN1S(=O)(=O)N(C)C (configuration not stated) | - | -25.78% | -5.07% | 10.34%
Cc1ccc(NS(C)(=O)=O)c(C(=O)NCCC(=O)NC(C)C)c1 | -2.746% | -20.66% | -2.621% | 18.31%

The last 5 entries again:

* Cc1cccnc1[C@H](C)NC(=O)c1cccc(CC2CCNCC2)c1 : CoaBC: -13.64%; Pks13 thioesterase: -39.14%; MtTrpRS: -3.095%; LiHisRS: 20%
* CCNC(=O)NC(C)c1nc(-c2ccc(Br)cc2)no1 (configuration not stated) : CoaBC: 7.143%; Pks13 thioesterase: -28.82%; MtTrpRS: -3.818%; LiHisRS: 1.042%
* CC(C)Nc1nc(-c2ccccc2)nc2c1CCN(C(=O)CC#N)CC2 : CoaBC: 0.7407%; LiHisRS: 8.182%
* CC1c2ncc(COCC3CCCC3)n2CCN1S(=O)(=O)N(C)C (configuration not stated) : Pks13 thioesterase: -25.78%; MtTrpRS: -5.07%; LiHisRS: 10.34%
* Cc1ccc(NS(C)(=O)=O)c(C(=O)NCCC(=O)NC(C)C)c1 : CoaBC: -2.746%; Pks13 thioesterase: -20.66%; MtTrpRS: -2.621%; LiHisRS: 18.31%